Amino acid sequences for entries named in this document (tags omitted).
UniProt P51784: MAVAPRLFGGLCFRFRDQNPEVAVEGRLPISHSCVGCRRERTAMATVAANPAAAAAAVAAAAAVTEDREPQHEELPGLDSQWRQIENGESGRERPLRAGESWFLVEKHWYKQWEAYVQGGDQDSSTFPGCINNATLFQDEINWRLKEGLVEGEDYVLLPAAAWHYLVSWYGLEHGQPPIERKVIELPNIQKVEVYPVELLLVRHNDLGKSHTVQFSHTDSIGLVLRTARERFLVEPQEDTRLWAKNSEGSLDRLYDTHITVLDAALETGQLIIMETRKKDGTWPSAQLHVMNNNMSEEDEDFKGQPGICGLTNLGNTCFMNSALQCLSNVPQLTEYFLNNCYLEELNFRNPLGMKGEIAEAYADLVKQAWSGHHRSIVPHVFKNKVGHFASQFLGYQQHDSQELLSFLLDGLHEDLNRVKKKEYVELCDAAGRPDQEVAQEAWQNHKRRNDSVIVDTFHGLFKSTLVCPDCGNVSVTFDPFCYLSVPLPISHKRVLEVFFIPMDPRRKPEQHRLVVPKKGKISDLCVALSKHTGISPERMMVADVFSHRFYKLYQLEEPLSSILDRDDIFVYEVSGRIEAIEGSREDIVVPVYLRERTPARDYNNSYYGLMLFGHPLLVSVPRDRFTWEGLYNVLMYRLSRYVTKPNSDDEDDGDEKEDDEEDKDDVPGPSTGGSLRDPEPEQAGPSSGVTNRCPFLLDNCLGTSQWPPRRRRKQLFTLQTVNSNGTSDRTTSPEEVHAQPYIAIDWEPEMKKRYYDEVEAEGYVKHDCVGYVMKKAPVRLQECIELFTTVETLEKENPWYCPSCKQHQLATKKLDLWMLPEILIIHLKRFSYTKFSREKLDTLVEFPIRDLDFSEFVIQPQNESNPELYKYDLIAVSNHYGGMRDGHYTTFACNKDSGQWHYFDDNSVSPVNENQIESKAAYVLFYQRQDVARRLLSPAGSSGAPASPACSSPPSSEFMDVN
UniProt Q09028: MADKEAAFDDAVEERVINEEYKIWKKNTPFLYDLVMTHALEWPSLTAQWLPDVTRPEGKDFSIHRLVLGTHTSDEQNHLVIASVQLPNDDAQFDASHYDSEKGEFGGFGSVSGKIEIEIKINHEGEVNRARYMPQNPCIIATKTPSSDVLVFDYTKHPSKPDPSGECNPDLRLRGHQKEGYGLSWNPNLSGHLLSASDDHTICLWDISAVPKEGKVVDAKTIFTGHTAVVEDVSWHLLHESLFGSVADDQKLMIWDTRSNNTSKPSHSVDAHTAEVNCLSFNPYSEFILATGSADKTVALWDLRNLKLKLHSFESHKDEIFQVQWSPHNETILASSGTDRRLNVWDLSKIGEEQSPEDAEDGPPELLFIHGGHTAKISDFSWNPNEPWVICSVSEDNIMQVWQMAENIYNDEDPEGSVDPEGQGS
UniProt Q92769: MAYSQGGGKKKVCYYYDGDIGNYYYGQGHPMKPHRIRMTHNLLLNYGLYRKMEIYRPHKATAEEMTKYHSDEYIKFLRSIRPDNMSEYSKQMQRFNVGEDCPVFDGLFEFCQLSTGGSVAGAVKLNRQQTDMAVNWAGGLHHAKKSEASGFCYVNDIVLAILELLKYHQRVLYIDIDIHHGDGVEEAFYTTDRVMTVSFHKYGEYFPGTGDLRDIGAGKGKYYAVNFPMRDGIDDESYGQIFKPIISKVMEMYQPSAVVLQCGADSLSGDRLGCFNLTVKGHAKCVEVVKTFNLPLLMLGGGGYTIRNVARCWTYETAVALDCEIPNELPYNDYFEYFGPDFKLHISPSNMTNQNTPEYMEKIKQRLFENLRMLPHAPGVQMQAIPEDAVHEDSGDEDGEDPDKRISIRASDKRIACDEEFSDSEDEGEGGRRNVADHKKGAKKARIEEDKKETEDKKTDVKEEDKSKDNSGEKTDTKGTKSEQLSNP

According to PMC6765148:

Target: FLAG-USP11 (UniProt P51784)
Assay: affinity purification with mass spectrometry; extracts of HEK293T stably expressing FLAG-USP11 (150 mM NaCl, 0.3% NP-40, 1 mM DTT, 5 mM EDTA, 50 mM Tris-HCl pH 7.4) on anti-FLAG M2 resin, washed with PBS plus 0.3% NP-40, eluted with FLAG peptide, gel bands analysed by LC-MS/MS

binding	Substance
binds	RbAp48 (endogenous, HEK293T) (from UniProt Q09028 1-425)
binds	HDAC2 (endogenous, HEK293T) (from UniProt Q92769 1-488) (enzyme)

No constants are given. Whether binding was seen depends on the method and setting. In cells and extracts the contact can be indirect. Here binding means that the protein was enriched with, or labelled near, the bait; the list need not be complete.
